Among all 330,000 compounds or so, about 7,700 (2.3%) were called active. The inconclusive results got no clear call from the source; some entries with a clear call stand among them for comparison. The call rests on the fitted dose curve; in most records, active means well fitted inhibition curve with a large enough effect; inconclusive means small, poorly fitted or top-dose-only effect, or effect the other way; inactive means flat fitted curve, though single readings scatter. A potency beside an inconclusive call is a rough fit, not a confirmed value.
Test: qHTS screen for small molecules that inhibit ELG1-dependent DNA repair in human embryonic kidney (HEK293T) cells expressing luciferase-tagged ELG1; further: nearly all actives have a fitted effect of over 55% in size
Details: HEK293T ELG1-luciferase reporter, luminescence, 16 h, DNA damage induced by 5-fluorouridine; activity change, negative = inhibition: at 46.1 µM (top of the series)
How it was run: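 HEK293T cells expressing luciferase-tagged ELG1 (2,000/well) received 5-Fluorouridine plus compound or DMSO for 16 hr at 37 °C. Luciferase was read by ONE-Glo luminescence after 30 min at room temperature.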
On the % scale 0 is the no-effect control and ±100 the full control effect; potency means the concentration at half of the fitted maximal effect.

| Compound | Potency | activity change, negative = inhibition |
| --- | --- | --- |
| CC(C)(C)c1ccc(C(=O)NCC(=O)OCC(=O)Nc2ccccc2[N+](=O)[O-])cc1 | inconclusive: 20.6 µM [activator, partial curve] | – |
| Cc1onc(C(=O)NN)c1C(=O)N1CCN(C(c2ccccc2)c2ccccc2)CC1 | inconclusive: 11.6 µM [inhibitor, partial curve, poor fit] | – |
| O=C(NCC1CCCO1)/C(=C\c1cccc([N+](=O)[O-])c1)NC(=O)c1ccccc1 (configuration not stated) | – | inactive: 24.6% |
| Cc1cccc(N=[N+]([O-])c2cccc(C)n2)n1 | inconclusive: 18.3 µM [activator, partial curve] | – |
| CCCCc1cc(=O)oc2cc(OCC(=O)N(CC)CC)ccc12 | inconclusive: 0.366 µM [inhibitor, full curve, poor fit] | – |
| O=C1C2Sc3[nH]c(=O)sc3C(c3cc([N+](=O)[O-])ccc3O)C2C(=O)N1c1ccccc1 (configuration not stated) | – | inactive: 3.78% |
| O=S1(=O)C=C(Sc2nnc(-c3ccccc3)o2)c2ccccc21 | active: 16.4 µM | – |
| Cc1cccc2nc(CSc3nnc(N)s3)cn12 | inconclusive: 23.1 µM [activator, partial curve] | – |
| O=S(=O)(Nc1cccc(-c2ccc(N3CCCCCC3)nn2)c1)c1ccc(C(F)(F)F)cc1 | inconclusive: 18.3 µM [activator, partial curve] | – |
| C/C(=N\NC(=O)c1nnn(-c2nonc2N)c1C)c1ccc(OCc2ccccc2)cc1 | inconclusive: 25.9 µM [activator, partial curve, poor fit] | – |
| O=S(=O)(c1ccc2c(c1)OCCO2)N1CCN(c2ncnc3sccc23)CC1 | active: 4.61 µM | – |
| Cc1ccc(OCC(=O)N(Cc2ccc(N(C)C)cc2)C2CCS(=O)(=O)C2)cc1C (configuration not stated) | – | inactive: -4.78% |
| CN(C(=O)CCc1nc(-c2ccccc2F)no1)c1ccccc1 | inconclusive: 20.6 µM [activator, single point] | – |
| Cc1ccc(NC(=O)C(C)Sc2nnc(C)n2C)cc1 (configuration not stated) | – | inactive: 4.2% |
| CCOC(=O)C1CCN(c2ncnc3c2oc2ccc(Cl)cc23)CC1 | inconclusive: 25.9 µM [activator, single point] | – |
| Cc1ccccc1Nc1nnc(SCc2nc3ccccc3c(=O)[nH]2)s1 | – | inactive: 0.129% |
| O=C(Cc1ccc(Cl)c(Cl)c1)N1CCOCC1 | inconclusive: 29.1 µM [activator, partial curve, poor fit] | – |
| COCC(=O)N(CCc1ccccc1)Cc1cc2cc(C)ccc2nc1Cl | – | inactive: -12.9% |
| Cc1ccc(NCCC(=O)c2cccs2)cc1Cl | inconclusive: 20.6 µM [activator, partial curve] | – |
| O=C(c1ccc([N+](=O)[O-])cc1)N1CCN(c2ncc(Br)cn2)CC1 | – | inactive: 0.532% |
| CC(=O)c1ccc2c3c(cccc13)C(=O)N(CCc1ccccc1)C2=O | inconclusive: 5.8 µM [activator, full curve] | – |
| Cc1cccnc1NC(=S)Nc1ccc(F)cc1F | inconclusive: 29.1 µM [activator, single point] | – |
| O=C(CSc1ccc(Cl)cc1)N1CCOCC1 | inconclusive: 8.2 µM [activator, single point] | – |
| COc1cccc(C(=O)Nc2sc(C(C)C)cc2C(N)=O)c1OC | inconclusive: 18.3 µM [inhibitor, single point] | – |

| Compound | Potency | activity change, negative = inhibition |
| --- | --- | --- |
| COC(C(=O)Nc1ccnn1C1CCN(Cc2cccc(C)n2)CC1)c1ccccc1 (configuration not stated) | inconclusive: 23.1 µM [activator, partial curve, poor fit] | – |
| COc1cccc(NC(=O)c2cccc(N3C(=O)C4C5C=CC(C5)C4C3=O)c2)c1 (configuration not stated) | inconclusive: 23.1 µM [inhibitor, partial curve] | – |
| CCCSc1nnc2nc(C)cc(C)n12 | inconclusive: 20.6 µM [activator, partial curve, poor fit] | – |
| COc1ccc(C)cc1S(=O)(=O)Nc1cccc(-c2ccc(N3CCCCCC3)nn2)c1 | inconclusive: 32.6 µM [inhibitor, single point] | – |
| COc1ccc(NC(=O)CN(C)C(=O)/C=C/c2cn(-c3ccccc3)nc2-c2ccc(C)cc2)cc1 | inconclusive: 13 µM [inhibitor, partial curve] | – |
| O=C(CCN1CCOCC1)c1ccc(Cl)cc1 | – | inactive: 10.7% |
| CCCCn1c(SCC(=O)Nc2ccc(OC)cc2)nc2ccc(N3CCOCC3)cc2c1=O | inconclusive: 14.6 µM [inhibitor, partial curve] | – |
| CC(=O)Nc1ccc(NC(=O)C(=O)NCC(c2ccco2)N2CCc3ccccc3C2)cc1 (configuration not stated) | – | inactive: -22% |
| CC(C)C(NC(=O)c1ccc2c(c1)OCCO2)c1nc2ccccc2[nH]1 (configuration not stated) | inconclusive: 20.6 µM [activator, single point] | – |
| COc1ccc2[nH]cc(C(O)CN3CCN(c4ccccc4)CC3)c2c1 (configuration not stated) | – | inactive: -20.8% |
| O=C(Cn1cnc([N+](=O)[O-])n1)N/N=C/c1ccccc1O | – | inactive: -23.5% |
| CCOc1cccc(C(=O)Nc2nnc(-c3ccco3)s2)c1 | inconclusive: 1.12 µM [activator, single point] | – |
| CCOC(=O)Nc1sc(C(=O)N(CC)CC)c(C)c1C(=O)OCC | – | inactive: -0.478% |
| C/C(=N\Oc1cccc(F)n1)c1ccc(Cl)cc1Cl | inconclusive: 32.6 µM [activator, partial curve, poor fit] | – |
| COc1ccc(NC(=O)c2ccc(Cl)c(S(=O)(=O)N3CCc4ccccc4C3)c2)cn1 | inconclusive: 10.3 µM [inhibitor, partial curve] | – |
| COc1ccc(CCC(=O)N(C)CC(=O)Nc2ccc(Cl)c(C(F)(F)F)c2)cc1 | inconclusive: 16.4 µM [inhibitor, single point] | – |
| CCOC(=O)N1CCC(n2c(=S)[nH]c3cc(OC)c(OC)cc3c2=O)CC1 | – | inactive: -13.6% |
| CC[C@H]1c2[nH]c3ccccc3c2C[C@H]2C(=O)N(c3ccc(F)cc3)C(=O)N21 | active: 7.3 µM | – |
| Cc1ccc(NC(=O)CCNS(=O)(=O)c2ccc3c(c2)CCC(=O)N3)cc1 | – | inactive: 11.2% |
| CCCNC(=O)CSc1nc(Cc2ccccc2)nc2ccccc12 | – | inactive: -13.7% |
| Cn1c(NC(=O)c2ccccc2NC(=O)C(C)(C)C)nc2ccccc21 | inconclusive: 23.1 µM [inhibitor, single point] | – |
| Cc1cc(C(=O)N2CCc3ccccc3C2)n[nH]1 | – | inactive: 27.4% |
| COc1ccc(NC(=O)CN2C(=O)C(C)Oc3ccc(C)cc32)cc1 (configuration not stated) | – | inactive: -5.19% |
| O=C(CSCc1cnn(-c2ccccc2)c1-n1cccc1)NCc1cccnc1 | – | inactive: 6.45% |

As a working copy, part of the list above:

| Compound | Potency | activity change, negative = inhibition |
| --- | --- | --- |
| COC(C(=O)Nc1ccnn1C1CCN(Cc2cccc(C)n2)CC1)c1ccccc1 (configuration not stated) | inconclusive: 23.1 µM [activator, partial curve, poor fit] | – |
| COc1cccc(NC(=O)c2cccc(N3C(=O)C4C5C=CC(C5)C4C3=O)c2)c1 (configuration not stated) | inconclusive: 23.1 µM [inhibitor, partial curve] | – |
| CCCSc1nnc2nc(C)cc(C)n12 | inconclusive: 20.6 µM [activator, partial curve, poor fit] | – |
| COc1ccc(C)cc1S(=O)(=O)Nc1cccc(-c2ccc(N3CCCCCC3)nn2)c1 | inconclusive: 32.6 µM [inhibitor, single point] | – |
| COc1ccc(NC(=O)CN(C)C(=O)/C=C/c2cn(-c3ccccc3)nc2-c2ccc(C)cc2)cc1 | inconclusive: 13 µM [inhibitor, partial curve] | – |
| O=C(CCN1CCOCC1)c1ccc(Cl)cc1 | – | inactive: 10.7% |

The results go on.

| Compound | Potency | activity change, negative = inhibition |
| --- | --- | --- |
| CCS(=O)(=O)N1N=C(c2ccccc2)CC1c1ccc2nccnc2c1 (configuration not stated) | – | inactive: 0.159% |
| Cc1ccc(-c2csc3ncnc(N4CCc5ccccc5C4)c23)cc1 | inconclusive: 29.1 µM [inhibitor, single point] | – |
| O=C(N/N=C/c1c[nH]c2ccccc12)c1ccccc1 | inconclusive: 16.4 µM [activator, single point] | – |
| CN1CCC(N(C)C(=S)NCCc2ccccc2)CC1 | inconclusive: 20.6 µM [activator, partial curve, poor fit] | – |
| COC(=O)c1ccc(NC2=CC(=O)CC(C)(C)C2)cc1 | – | inactive: 20% |
| CC(C)(C)C(=O)Nc1nc(-c2ccc3c(c2)OCO3)cs1 | inconclusive: 2.31 µM [activator, partial curve] | – |
| Oc1ccc(N=Cc2ccc(OCc3ccccc3)cc2)cc1 | inconclusive: 13 µM [activator, single point] | – |
| O=C(CSc1ccc2c(c1)OCCO2)Nc1cccnc1 | inconclusive: 11.6 µM [inhibitor, partial curve] | – |
| Cc1cccc(-c2nc3c(c(SCC(=O)N4CCOCC4)n2)COC(C)(C)C3)c1 | – | inactive: -3.02% |
| COc1ccccc1N(C)S(=O)(=O)c1ccc(C(=O)NCCc2ccc(F)cc2)cc1 | inconclusive: 29.1 µM [inhibitor, single point] | – |
| Cc1cc2c(ncn2Cc2ccccc2)c(NS(C)(=O)=O)c1C | inconclusive: 20.6 µM [inhibitor, single point] | – |
| O=C(c1ccc(OC2CCN(C/C=C/c3ccccc3)CC2)cc1)N1CCCCC1 | – | inactive: -6.95% |
| COc1ccc(-n2nc([N+](=O)[O-])c(=NCCc3cccc(C)c3)n2O)cc1 | – | inactive: -3.72% |
| CCCC(O)(c1ccc(Br)cc1)C(CN1CCOCC1)c1ccc(Cl)cc1 (configuration not stated) | – | inactive: -22.4% |
| Cc1ccc(S(=O)(=O)N2CCN(C(=O)CSCc3ccc(C(C)C)cc3)CC2)cc1 | inconclusive: 28.2 µM [inhibitor, single point] | – |
| COc1ccc(NC(=O)COC(=O)C2CCC(C(C)(C)C)CC2)c([N+](=O)[O-])c1 (configuration not stated) | – | inactive: 6.43% |
| Cc1ccnc(NC(=O)CNC(=O)c2sc3ccccc3c2Cl)c1 | inconclusive: 9.2 µM [activator, partial curve] | – |
| O=C(Cn1nc(-c2ccc(Cl)cc2)ccc1=O)N1CCN(c2ccccc2)CC1 | inconclusive: 20.6 µM [inhibitor, partial curve] | – |
| CCn1c(=O)cc(OCC(=O)N2CCN(c3ccc(F)cc3)CC2)c2ccccc21 | inconclusive: 8.2 µM [activator, partial curve] | – |
| CCCN1CCN(S(=O)(=O)c2ccc3c(c2)CCC(=O)N3)CC1 | – | inactive: 16% |
| Cc1cccc(-n2c(O)c(C=NCCCN3CCOCC3)c3ccccc3c2=O)c1 | inconclusive: 20.6 µM [inhibitor, partial curve] | – |
| CC(=O)Nc1ccc(C(=O)/C=C/c2ccc[nH]2)cc1 | inconclusive: 18.3 µM [activator, single point] | – |
| COc1ccc(C(=O)O/N=C(\N)Cc2ccc(Cl)c(Cl)c2)cc1OC | active: 18.4 µM | – |
| N#CC1=C2Sc3ccccc3N2CCCC1=O | inconclusive: 23.1 µM [activator, single point] | – |
